Where two headings read alike, the source gives them in different places. No constants are given. Whether binding was seen depends on the method and setting. In cells and extracts the contact can be indirect. Here binding means that the protein was enriched with, or labelled near, the bait; the list need not be complete. Blank lines part the entries; values can stand above or below the molecule they belong to.
Tests used:
[1] = biological target: T1, Ambra1 (Activating Molecule in Beclin1-Regulated Autophagy) (mouse (endogenous in SCC cells)) (UniProt A2AH22); test: affinity purification with mass spectrometry
T1 sequence: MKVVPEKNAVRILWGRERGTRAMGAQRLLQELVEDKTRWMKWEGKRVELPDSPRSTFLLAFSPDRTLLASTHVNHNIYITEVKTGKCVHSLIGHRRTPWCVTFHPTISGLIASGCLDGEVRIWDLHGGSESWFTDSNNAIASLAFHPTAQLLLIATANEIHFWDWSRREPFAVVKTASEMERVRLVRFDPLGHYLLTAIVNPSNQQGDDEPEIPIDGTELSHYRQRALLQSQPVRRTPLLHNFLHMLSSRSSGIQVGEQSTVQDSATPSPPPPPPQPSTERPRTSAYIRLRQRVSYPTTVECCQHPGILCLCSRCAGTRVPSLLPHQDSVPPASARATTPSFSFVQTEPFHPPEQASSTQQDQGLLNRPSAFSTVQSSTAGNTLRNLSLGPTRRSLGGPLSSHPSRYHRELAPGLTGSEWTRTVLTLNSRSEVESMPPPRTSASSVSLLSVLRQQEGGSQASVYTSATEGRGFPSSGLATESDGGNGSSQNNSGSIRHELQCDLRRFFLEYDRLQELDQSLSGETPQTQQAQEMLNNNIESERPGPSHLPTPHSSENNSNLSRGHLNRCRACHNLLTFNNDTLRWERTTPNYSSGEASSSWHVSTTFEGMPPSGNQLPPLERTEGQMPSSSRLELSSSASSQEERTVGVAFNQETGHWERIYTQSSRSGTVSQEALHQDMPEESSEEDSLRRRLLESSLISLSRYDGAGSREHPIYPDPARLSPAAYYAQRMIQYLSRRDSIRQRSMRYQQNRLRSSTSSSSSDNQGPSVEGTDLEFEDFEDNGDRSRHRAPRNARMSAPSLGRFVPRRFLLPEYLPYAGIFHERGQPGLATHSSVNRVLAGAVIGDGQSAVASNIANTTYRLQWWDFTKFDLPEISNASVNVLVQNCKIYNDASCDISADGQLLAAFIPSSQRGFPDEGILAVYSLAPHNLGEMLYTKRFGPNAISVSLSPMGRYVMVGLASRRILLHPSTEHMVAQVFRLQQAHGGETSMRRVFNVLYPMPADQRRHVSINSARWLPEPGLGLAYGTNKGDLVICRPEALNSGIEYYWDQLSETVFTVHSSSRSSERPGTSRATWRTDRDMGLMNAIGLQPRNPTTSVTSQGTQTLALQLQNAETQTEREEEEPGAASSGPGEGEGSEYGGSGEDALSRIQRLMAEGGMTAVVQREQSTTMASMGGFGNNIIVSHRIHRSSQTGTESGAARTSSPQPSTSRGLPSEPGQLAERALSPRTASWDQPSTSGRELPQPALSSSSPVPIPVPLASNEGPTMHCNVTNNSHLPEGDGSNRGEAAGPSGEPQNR

By UniProt entry, the sequences of proteins in these tests, tags left out.
UniProt Q99J95: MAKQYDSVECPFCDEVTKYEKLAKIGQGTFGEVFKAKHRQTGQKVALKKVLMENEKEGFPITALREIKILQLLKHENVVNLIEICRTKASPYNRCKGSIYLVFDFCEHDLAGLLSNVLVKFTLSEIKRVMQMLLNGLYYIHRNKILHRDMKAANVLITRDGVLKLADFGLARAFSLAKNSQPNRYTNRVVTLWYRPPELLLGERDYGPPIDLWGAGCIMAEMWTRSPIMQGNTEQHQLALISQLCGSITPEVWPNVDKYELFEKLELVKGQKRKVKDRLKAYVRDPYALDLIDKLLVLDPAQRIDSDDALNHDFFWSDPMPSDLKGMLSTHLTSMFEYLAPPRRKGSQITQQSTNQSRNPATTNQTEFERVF
UniProt P60122: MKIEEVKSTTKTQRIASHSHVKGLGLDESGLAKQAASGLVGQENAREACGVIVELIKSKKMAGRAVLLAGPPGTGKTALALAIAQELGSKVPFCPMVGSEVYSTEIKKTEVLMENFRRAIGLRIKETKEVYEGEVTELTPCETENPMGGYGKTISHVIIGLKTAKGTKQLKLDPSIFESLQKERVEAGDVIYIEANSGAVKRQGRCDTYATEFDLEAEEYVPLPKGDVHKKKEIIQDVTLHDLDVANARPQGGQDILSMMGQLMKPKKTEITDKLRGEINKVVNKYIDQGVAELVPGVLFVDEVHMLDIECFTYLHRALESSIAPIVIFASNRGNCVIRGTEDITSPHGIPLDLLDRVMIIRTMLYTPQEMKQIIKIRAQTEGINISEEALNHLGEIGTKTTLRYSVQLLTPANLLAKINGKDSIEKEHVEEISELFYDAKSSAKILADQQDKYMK
UniProt Q3TKT4: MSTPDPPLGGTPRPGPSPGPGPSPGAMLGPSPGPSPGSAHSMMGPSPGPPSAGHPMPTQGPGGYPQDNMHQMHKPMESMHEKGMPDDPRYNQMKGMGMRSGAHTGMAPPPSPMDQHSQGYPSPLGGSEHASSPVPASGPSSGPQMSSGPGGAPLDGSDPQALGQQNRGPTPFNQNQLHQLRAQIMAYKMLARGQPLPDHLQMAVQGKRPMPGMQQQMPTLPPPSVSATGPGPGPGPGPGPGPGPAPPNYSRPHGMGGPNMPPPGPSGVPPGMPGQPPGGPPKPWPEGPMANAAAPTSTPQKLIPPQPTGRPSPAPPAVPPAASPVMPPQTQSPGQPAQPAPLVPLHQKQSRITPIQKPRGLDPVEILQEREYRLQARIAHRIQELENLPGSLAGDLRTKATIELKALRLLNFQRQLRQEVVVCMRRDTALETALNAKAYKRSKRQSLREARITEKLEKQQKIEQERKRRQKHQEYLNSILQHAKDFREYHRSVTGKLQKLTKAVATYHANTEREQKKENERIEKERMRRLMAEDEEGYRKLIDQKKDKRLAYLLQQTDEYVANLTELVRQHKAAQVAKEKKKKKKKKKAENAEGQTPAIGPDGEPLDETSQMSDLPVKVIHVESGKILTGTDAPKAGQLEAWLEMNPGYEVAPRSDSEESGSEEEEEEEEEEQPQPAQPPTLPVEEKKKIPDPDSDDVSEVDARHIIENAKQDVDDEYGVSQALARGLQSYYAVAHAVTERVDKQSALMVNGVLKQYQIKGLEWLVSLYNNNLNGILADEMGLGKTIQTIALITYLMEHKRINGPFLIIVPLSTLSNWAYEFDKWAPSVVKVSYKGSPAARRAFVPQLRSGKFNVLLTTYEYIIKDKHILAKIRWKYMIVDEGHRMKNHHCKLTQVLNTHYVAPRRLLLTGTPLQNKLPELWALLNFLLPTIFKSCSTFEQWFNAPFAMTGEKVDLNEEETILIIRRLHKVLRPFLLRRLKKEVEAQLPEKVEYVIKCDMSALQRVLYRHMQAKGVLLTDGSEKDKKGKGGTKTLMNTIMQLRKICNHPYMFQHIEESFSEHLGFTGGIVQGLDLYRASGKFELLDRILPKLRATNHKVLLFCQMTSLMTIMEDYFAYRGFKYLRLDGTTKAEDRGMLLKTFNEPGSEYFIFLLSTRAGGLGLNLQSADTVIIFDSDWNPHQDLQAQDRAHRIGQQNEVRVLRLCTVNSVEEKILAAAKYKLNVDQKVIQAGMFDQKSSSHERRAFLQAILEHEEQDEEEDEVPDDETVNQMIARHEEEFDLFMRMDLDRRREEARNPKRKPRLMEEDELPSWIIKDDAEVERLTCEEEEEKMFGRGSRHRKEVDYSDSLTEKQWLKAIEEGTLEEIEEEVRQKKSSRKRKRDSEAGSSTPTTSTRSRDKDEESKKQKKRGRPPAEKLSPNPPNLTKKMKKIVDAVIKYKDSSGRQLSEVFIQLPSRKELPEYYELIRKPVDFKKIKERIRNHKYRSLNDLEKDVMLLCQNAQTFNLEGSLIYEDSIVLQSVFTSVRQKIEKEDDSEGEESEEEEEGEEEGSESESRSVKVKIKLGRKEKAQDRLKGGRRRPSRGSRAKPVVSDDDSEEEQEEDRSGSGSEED
UniProt P97496: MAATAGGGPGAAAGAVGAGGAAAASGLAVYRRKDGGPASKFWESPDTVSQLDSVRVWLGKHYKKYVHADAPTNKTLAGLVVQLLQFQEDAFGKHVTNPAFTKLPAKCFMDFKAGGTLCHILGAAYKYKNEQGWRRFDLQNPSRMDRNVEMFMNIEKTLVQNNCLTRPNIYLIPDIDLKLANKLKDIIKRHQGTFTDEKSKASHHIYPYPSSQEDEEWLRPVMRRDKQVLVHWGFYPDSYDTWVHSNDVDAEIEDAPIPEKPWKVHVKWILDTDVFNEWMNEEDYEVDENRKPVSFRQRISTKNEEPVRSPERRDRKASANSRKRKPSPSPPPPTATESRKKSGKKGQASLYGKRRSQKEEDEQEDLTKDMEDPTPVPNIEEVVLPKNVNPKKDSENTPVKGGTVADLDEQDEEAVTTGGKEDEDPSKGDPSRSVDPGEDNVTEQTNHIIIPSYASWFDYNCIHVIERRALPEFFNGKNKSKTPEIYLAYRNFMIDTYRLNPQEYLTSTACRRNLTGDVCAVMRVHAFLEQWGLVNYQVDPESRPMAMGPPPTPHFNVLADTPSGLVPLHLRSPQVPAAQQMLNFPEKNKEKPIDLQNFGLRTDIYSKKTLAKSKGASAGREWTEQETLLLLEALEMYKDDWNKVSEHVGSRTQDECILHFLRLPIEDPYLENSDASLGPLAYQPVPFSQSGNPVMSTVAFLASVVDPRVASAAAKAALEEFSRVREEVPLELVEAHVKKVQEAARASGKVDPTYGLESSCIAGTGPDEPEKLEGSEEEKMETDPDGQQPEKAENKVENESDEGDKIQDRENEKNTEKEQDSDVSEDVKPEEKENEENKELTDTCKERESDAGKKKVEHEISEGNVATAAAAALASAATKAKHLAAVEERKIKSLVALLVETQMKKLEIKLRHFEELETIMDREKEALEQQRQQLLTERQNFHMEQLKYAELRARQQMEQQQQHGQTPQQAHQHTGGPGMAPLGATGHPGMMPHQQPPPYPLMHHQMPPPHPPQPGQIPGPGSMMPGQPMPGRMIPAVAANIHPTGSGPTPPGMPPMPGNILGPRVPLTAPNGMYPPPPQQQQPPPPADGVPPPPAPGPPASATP
UniProt P05627: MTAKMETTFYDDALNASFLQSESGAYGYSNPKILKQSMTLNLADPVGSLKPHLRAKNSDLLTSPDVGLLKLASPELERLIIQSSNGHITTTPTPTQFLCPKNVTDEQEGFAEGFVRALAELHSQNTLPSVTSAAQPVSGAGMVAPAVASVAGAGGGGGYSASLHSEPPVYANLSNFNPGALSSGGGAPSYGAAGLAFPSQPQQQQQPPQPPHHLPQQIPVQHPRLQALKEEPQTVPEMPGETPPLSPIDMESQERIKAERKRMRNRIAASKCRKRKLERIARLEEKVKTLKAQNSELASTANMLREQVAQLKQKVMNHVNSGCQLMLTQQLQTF
UniProt Q9DBR0: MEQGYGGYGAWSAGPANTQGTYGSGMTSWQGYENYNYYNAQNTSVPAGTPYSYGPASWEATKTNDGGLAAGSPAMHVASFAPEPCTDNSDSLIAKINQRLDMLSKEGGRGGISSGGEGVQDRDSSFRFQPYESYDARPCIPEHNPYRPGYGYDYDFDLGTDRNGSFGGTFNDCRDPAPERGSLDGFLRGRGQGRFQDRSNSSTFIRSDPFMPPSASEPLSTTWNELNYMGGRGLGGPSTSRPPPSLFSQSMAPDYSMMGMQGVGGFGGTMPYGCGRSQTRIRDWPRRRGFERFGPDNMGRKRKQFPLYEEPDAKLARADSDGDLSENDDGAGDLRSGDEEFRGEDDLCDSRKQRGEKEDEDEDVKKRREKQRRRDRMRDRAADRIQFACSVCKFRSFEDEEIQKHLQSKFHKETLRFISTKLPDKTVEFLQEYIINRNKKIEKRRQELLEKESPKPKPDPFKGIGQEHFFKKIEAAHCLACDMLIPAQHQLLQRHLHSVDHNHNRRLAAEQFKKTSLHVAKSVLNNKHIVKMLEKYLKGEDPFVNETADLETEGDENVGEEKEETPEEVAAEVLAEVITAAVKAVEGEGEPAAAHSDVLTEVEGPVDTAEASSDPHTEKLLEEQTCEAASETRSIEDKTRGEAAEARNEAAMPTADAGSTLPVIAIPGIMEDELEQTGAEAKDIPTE
UniProt Q9WTM5: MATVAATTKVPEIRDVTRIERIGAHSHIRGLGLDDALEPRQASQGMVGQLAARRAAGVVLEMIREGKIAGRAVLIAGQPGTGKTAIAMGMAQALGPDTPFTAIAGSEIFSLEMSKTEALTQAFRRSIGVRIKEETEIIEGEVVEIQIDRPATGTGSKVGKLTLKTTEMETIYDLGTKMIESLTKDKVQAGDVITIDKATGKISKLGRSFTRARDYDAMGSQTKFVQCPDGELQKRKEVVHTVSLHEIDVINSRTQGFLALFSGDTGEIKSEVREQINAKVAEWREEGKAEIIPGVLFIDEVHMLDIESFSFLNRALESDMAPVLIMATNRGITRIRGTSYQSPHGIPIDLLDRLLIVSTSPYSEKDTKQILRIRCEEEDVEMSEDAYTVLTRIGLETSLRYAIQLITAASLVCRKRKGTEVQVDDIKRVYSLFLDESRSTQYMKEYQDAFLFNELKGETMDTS

[2] = biological target: T1, Ambra1 (Activating Molecule in Beclin1-Regulated Autophagy) (mouse (endogenous in SCC cells)); test: affinity purification with mass spectrometry; remark: listed apart in the source

Molecule: Cdk9 (from UniProt Q99J95 1-372)
binding [1]: binds

Molecule: Ruvbl1 (from UniProt P60122 1-456)
binding [1]: binds

Molecule: SMARCA4 (Brg1) (from UniProt Q3TKT4 1-1613)
binding [1]: binds

Molecule: SMARCC1 (from UniProt P97496 1-1104)
binding [1]: binds

Molecule: c-Jun (from UniProt P05627 1-334)
binding [1]: binds

B3: Atf2 (protein, UniProt P16951 1-487)
chain: MSDDKPFLCTAPGCGQRFTNEDHLAVHKHKHEMTLKFGPARNDSVIVADQTPTPTRFLKNCEEVGLFNELASPFENEFKKASEDDIKKMPLDLSPLATPIIRSKIEEPSVVETTHQDSPLPHPESTTSDEKEVPLAQTAQPTSAIVRPASLQVPNVLLTSSDSSVIIQQAVPSPTSSTVITQAPSSNRPIVPVPGPFPLLLHLPNGQTMPVAIPASITSSNVHVPAAVPLVRPVTMVPSVPGIPGPSSPQPVQSEAKMRLKAALTQQHPPVTNGDTVKGHGSGLVRTQSEESRPQSLQQPATSTTETPASPAHTTPQTQNTSGRRRRAANEDPDEKRRKFLERNRAAASRCRQKRKVWVQSLEKKAEDLSSLNGQLQSEVTLLRNEVAQLKQLLLAHKDCPVTAMQKKSGYHTADKDDSSEDLSVPSSPHTEAIQHSSVSTSNGVSSTSKAEAVATSVLTQMADQSTEPALSQIVMAPPSQAQPSGS
binding [2]: binds

B4: Atf7 (protein, UniProt Q8R0S1 1-413)
chain: MGDDRPFVCSAPGCGQRFTNEDHLAVHKHKHEMTLKFGPARTDSVIIADQTPTPTRFLKNCEEVGLFNELASSFEHEFKKASDDDEKKGAAGPLDMSLPSTPDIKIKEEEPVEVDSSPPDSPASSPCSPPLKEKEVTTKPVVISTPTPTIVRPGSLPLHLGYDPLHPTLPSPTSVITQAPPSNRQIGSPTGSLPLVMHLANGQTMPMLPGPPVQMPSVISLARPVSMVPNIPGIPGPPVNNSGSISPSGHPMPSEAKMRLKATLTHQVSSINGGCGMVVGTASTMVTARPEQNQILIQHPDAPSPAQPQVSPAQPTPSTGGRRRRTVDEDPDERRQRFLERNRAAASRCRQKRKLWVSSLEKKAEELTSQNIQLSNEVTLLRNEVAQLKQLLLAHKDCPVTALQKKTQGYLGK
binding [2]: binds

Further lines, results first:

binding [1]: binds
Molecule: Akap8 (A kinase anchor protein 8) (from UniProt Q9DBR0 1-687)

binding [1]: binds
Molecule: Fosl (mouse (endogenous in SCC cells))

binding [1]: binds
Molecule: Ruvbl2 (from UniProt Q9WTM5 1-463)

binding [2]: binds
B1: Nup153 (protein, UniProt E9Q3G8 1-1462)
chain: MASEAGGIGGGGGGGKIRTRRCHQGPVKPYQQGRPQHQGILSRVTESVKNIVPGWLQRYFNKSENACSCSPDADEVPPWPENREDEHAIYADENTNTDDGRITPDPAGSNTEEPSTTSTASNYPDVLTRPSLHRSHLNFSVLESPALHCQPSTSSAFPIGSSGFSLVKEIKDSTSQHDDDNISTTSGFSSRASEKDIAVSKNTSLPPLWSPEAERSHSLSQHTAISSKKPAFNLSAFGTLSTSLGNSSILKTSQLGDSPFYPGKTTYGGAAAAVRQNKVRSTPYQAPVRRQMKAKQLNAQSYGVTSSTARRILQSLEKMSSPLADAKRIPSAVSSPLNSPLDRSGIDNTVFQAKKEKVDSQYPPVQRLMTPKPVSIATNRTVYFKPSLTPSGDLRKTNQRIDKKNSTVDEKSISRQNREQESGFSYPNFSIPAANGLSSGVGGGGGKMRRERTHFVAPKPPENEEVEAPLLPQISLPISSSSLPTFSFSSPVTSASPSPVSSSQPLPNKVQMTSLGSTGSPVFTFSSPIVKSTQAAVLPPASIGFTFSVPLAKTEFSGSNSSSETVLSSSAQDITAVNSSSYKKRSAPCEDPFTPAKILREGSVLDILKTPGFASPKVDSPALQPTTTSSIVYTRPAISTFSSSGIEYGESLKAGSSWQCDTCLLQNKVTDNKCIACQAAKLPLKETAKQTGTGTPSKSDKPASTSGTGFGDKFKPAIGTWDCDTCLVQNKPEAVKCVACETPKPGTGVKRALTLTVASESPVTASSSTTVTTGTLGFGDKFKRPVGSWECPVCCVCNKAEDNRCVSCTSEKPGLVSASSSSPAPVSLSSGGCLGLDKFKKPEGSWDCEVCLVQNKADSAKCIACESAKPGTKSEFKGFGTSSSLNPAPSAFKFGIPSSSSGLSQTLTSTGNFKFGDQGGFKLGTSSDSGSTNTMNTNFKFSKPTGDFKFGVLSDSKPEEVKNDNKNDNFQFGSSSGLTNPASSAPFQFGVSTLGQQEKKEELPKSSPAGFSFGAGVNNPPNAAIDTTATSENKSGFNFGTLDTKSVSVTPFTYKTTEAKKEDAPATKGGFTFGKVGSSSLPSSSMFVLGRTEEKQQEPVTSTSLVFGKKADSEEPKCQPVFSFGNSEQTKDESSKPTFSFSVAKPSGKESEQLAKATFAFGNQTNTTTDQGAAKPVFSFLNSSSSSSSAPATSSSGGIFGSSTSSSNPPVAAFVFGQASNPVSSSAFGNAAESSTSQSLLFPQESEPATTSSTAPAASPFVFGTGASSNSVSSGFTFGATTTSSSSGSSFVFGTGHSAPSASPAFGANQTPTFGQSQGASQPNPPSFGSISSSTALFSAGSQPVPPPIFGTVSSSSQPPVFGQQPSQSAFGSGTANASSVFQFGSSTTNFNFTNNNPSGVFTFGASPSTPAASAQPSGSGVFSFSQSPASFTVGSNGKNMFSSSGTSVSGRKIKTAVRRKK

binding [2]: binds
B2: Cdk8 (protein, UniProt Q8R3L8 1-464)
chain: MDYDFKVKLSSERERVEDLFEYEGCKVGRGTYGHVYKAKRKDGKDDKDYALKQIEGTGISMSACREIALLRELKHPNVISLLKVFLSHADRKVWLLFDYAEHDLWHIIKFHRASKANKKPVQLPRGMVKSLLYQILDGIHYLHANWVLHRDLKPANILVMGEGPERGRVKIADMGFARLFNSPLKPLADLDPVVVTFWYRAPELLLGARHYTKAIDIWAIGCIFAELLTSEPIFHCRQEDIKTSNPYHHDQLDRIFNVMGFPADKDWEDIKKMPEHSTLMKDFRRNTYTNCSLIKYMEKHKVKPDSKAFHLLQKLLTMDPIKRITSEQAMQDPYFLEDPLPTSDVFAGCQIPYPKREFLTEEEPDEKGDKKTQQQQQGNNHTNGTGHPGNQDSGHAQGPPLKKVRVVPPTTTSGGLIMTSDYQRSNPHAAYPNPGPSTSQPQSSMGYSATSQQPPQYSHQTHRY

From article doi:10.1101/2020.01.08.899328
